Laboratory results published in PubChem BioAssay AID651768 (National Center for Advancing Translational Sciences (NCATS), 2012).
Out of some 360,000 compounds screened, about 1,700 (0.47%) were called active. The shares of active, inactive and inconclusive entries below differ from those in the screen. The call rests on the fitted dose curve; in most records, active means well fitted inhibition curve with a large enough effect; inconclusive means small, poorly fitted or top-dose-only effect; inactive means no such curve, though single readings can be large or run the other way. A potency beside an inconclusive call is a rough fit, not a confirmed value.

Chains of the proteins cited; added tags and fusions are not shown.
UniProt Q14191, whole entry, looked up: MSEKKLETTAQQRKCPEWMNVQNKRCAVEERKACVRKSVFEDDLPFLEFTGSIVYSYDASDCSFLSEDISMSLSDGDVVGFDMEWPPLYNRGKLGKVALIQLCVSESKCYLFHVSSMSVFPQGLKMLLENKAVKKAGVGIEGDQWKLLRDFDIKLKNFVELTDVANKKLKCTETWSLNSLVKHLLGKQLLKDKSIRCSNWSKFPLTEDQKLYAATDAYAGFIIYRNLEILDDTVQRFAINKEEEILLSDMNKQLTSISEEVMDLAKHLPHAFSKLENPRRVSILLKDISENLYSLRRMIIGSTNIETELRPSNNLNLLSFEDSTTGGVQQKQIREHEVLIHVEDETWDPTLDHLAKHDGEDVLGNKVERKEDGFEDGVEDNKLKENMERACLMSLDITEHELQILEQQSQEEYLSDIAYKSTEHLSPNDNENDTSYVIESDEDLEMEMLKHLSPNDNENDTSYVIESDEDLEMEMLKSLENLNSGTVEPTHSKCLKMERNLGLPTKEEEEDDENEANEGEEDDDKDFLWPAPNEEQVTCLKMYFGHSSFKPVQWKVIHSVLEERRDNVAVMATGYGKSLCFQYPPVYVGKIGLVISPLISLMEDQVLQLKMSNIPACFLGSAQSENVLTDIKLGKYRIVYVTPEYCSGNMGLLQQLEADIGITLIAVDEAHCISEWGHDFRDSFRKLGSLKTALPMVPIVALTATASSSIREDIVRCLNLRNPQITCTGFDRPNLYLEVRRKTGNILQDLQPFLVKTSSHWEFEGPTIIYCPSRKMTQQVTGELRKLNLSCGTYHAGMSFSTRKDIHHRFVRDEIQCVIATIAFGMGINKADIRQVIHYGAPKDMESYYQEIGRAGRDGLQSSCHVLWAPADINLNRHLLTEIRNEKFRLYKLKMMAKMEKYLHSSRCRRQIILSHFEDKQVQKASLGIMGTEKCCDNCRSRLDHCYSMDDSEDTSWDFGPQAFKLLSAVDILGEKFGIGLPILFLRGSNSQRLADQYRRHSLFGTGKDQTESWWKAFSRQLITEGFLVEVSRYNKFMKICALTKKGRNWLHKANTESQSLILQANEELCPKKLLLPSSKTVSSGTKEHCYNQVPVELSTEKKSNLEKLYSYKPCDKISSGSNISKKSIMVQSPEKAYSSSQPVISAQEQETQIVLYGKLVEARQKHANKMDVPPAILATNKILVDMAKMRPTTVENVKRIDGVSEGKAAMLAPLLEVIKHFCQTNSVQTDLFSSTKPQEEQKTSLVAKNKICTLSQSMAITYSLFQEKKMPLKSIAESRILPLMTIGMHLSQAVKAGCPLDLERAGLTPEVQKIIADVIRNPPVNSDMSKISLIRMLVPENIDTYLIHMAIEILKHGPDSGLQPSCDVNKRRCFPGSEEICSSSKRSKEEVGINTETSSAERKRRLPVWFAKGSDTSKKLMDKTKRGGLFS

Biological target: Bifunctional 3'-5' exonuclease/ATP-dependent helicase WRN (Homo sapiens) (UniProt Q14191)
Assay: qHTS for Inhibitors of WRN Helicase; further: nearly all actives have a fitted effect of over 55% in size
Conditions: WRN helicase unwinding, fluorescent forked duplex, kinetic; activity change, negative = inhibition: at 114 µM (top of the series) unless noted
Method in brief: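 Enzyme (20 nM final) and test compound sit together 15 min at room temperature before substrate addition. Substrate is a single-forked duplex oligonucleotide (100 nM) labelled with fluorophore and quencher, with 2 mM ATP; helicase unwinding raises red fluorescence, read kinetically.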
On the % scale 0 is the no-effect control and ±100 the full control effect; potency means the concentration at half of the fitted maximal effect.

Row | Compound | Potency | activity change, negative = inhibition
1 | COc1ccccc1Nc1nc(C)cc(C)n1 | inconclusive: 10 µM [inhibitor, full curve] | –
2 | CC(/C=C/c1ccco1)=N/NC(=O)c1ccccc1Cl | – | inactive: -19.5%
3 | CCOc1ccc(C(=O)Nc2ccc(N3CCN(C(=O)c4ccco4)CC3)cc2)cc1Br | inconclusive: 50.1 µM [inhibitor, partial curve] | –
4 | Cc1nc(SCC(=O)Nc2ccc3[nH]c(=O)[nH]c3c2)nc(C)c1C | inconclusive: 31.6 µM [inhibitor, partial curve] | –
5 | CC1=CC(=C2C(=O)c3ccccc3C2=O)C=C(C)O1 | inconclusive: 12.6 µM [inhibitor, partial curve] | –
6 | Cc1nc2ccccn2c1-c1ccnc(=S)[nH]1 | inconclusive: 56.2 µM [inhibitor, partial curve] | –
7 | Nc1c(Br)cc(Br)c2c1C(=O)c1c(cccc1S(=O)(=O)O)C2=O | – | inconclusive: -69.5% [inhibitor]
8 | Cn1cc(Br)c(C(=O)Nc2sc3c(c2C#N)CCC3)n1 | – | inactive: -23.3%
9 | Cc1nc2ccc(C(=O)O)cc2c2c1CC(C)S2 (configuration not stated) | active: 31.6 µM | –
10 | C=CCn1c(COc2ccccc2)nnc1SCC(=O)Nc1ccc2c(c1)OCCO2 | inconclusive: 89.1 µM [inhibitor, single point] | –
11 | COc1ccc(NC(=O)CC2C(=O)N(C)C(=S)N2CCc2ccccc2)cc1 (configuration not stated) | inconclusive: 11.2 µM [inhibitor, partial curve] | –
12 | O=S(=O)(Nc1nc(-c2sccc2Cl)cs1)c1cc(Cl)ccc1Cl | inconclusive: 50.1 µM [inhibitor, partial curve] | –
13 | CCN(Cc1ccc(Br)s1)C(=O)CSc1nnc(C2CC2)n1C1CC1 | – | inactive: -5.26%
14 | CCN(CC)CCP(=O)(c1ccccc1)c1ccccc1 | – | inactive: -5.47% [at 57.1 µM]
15 | O=C(O)CCC(=O)Nc1ccc(SSc2ccc(NC(=O)CCC(=O)O)cc2)cc1 | inconclusive: 35.5 µM [inhibitor, partial curve] | –
16 | CC(Oc1ccccc1F)C(=O)NNC(=O)CCNC(=O)c1ccccc1Cl (configuration not stated) | inconclusive: 89.1 µM [inhibitor, single point] | –
17 | O=C(CN1C(=O)N/C(=C\c2ccccc2OCc2ccc(C(=O)O)cc2)C1=O)Nc1ccccc1F | inconclusive: 79.4 µM [inhibitor, partial curve] | –
18 | c1ccc(Oc2cccc(OCCCn3cncn3)c2)cc1 | – | inactive: -2.76%
19 | Cc1ccccc1N=Cc1cc2c(cc1O)OC(N)=C(C#N)C2c1ccccc1 (configuration not stated) | inconclusive: 79.4 µM [inhibitor, partial curve] | –
20 | Cc1nc(NC(=O)CSc2nnc(C)n2CC2CCCO2)sc1C (configuration not stated) | – | inactive: 7.53%
21 | CCOc1ccc(CCNC(=O)c2nnn(CC(=O)Nc3ccc(C)cc3)c2N)cc1OCC | – | inactive: -12.2%
22 | CN(CC(=O)Nc1ccccc1Sc1ccccc1)C1CCCCC1 | inconclusive: 89.1 µM [inhibitor, single point] | –
23 | COc1ccc(C(C)=O)cc1CSc1nnc(Nc2ccc(C)cc2C)s1 | inconclusive: 39.8 µM [inhibitor, single point] | –
24 | COC(=O)c1csc(S(=O)(=O)N2CCCCC2)c1OC | – | inactive: 6.05%

Reformatted as a markdown table: part of the list above.

| Row | Compound | Potency | activity change, negative = inhibition |
| --- | --- | --- | --- |
| 6 | Cc1nc2ccccn2c1-c1ccnc(=S)[nH]1 | inconclusive: 56.2 µM [inhibitor, partial curve] | – |
| 10 | C=CCn1c(COc2ccccc2)nnc1SCC(=O)Nc1ccc2c(c1)OCCO2 | inconclusive: 89.1 µM [inhibitor, single point] | – |
| 11 | COc1ccc(NC(=O)CC2C(=O)N(C)C(=S)N2CCc2ccccc2)cc1 (configuration not stated) | inconclusive: 11.2 µM [inhibitor, partial curve] | – |
| 16 | CC(Oc1ccccc1F)C(=O)NNC(=O)CCNC(=O)c1ccccc1Cl (configuration not stated) | inconclusive: 89.1 µM [inhibitor, single point] | – |

Continued.

Row | Compound | Potency | activity change, negative = inhibition
25 | Cc1ccc(CS(=O)(=O)c2ncc(Cl)c(C(=O)Nc3ccc(OC(F)F)cc3)n2)cc1 | inconclusive: 15.8 µM [inhibitor, full curve, poor fit] | –
26 | N=C1CCC(=N)c2c1c(O)c1ccccc1c2O | active: 31.6 µM | –
27 | CC(Sc1cccc[n+]1[O-])C(=O)Nc1cccc(S(=O)(=O)N2CCOCC2)c1 (configuration not stated) | inconclusive: 10 µM [inhibitor, partial curve] | –
28 | O=C(Nc1ccc(S(=O)(=O)Nc2nccs2)cc1)c1nn(-c2ccccc2)ccc1=O | active: 79.4 µM | –
29 | C=CCOc1ccc(CN(C)CC(O)COc2ccc(CCC(C)=O)cc2)cc1 (configuration not stated) | inconclusive: 79.4 µM [inhibitor, partial curve] | –
30 | Cc1ccccc1CSCC(=O)NNC(=S)NCC1CCCO1 (configuration not stated) | – | inactive: -24.7%
31 | CC/C(=N\NC(N)=O)c1ccc(OC(F)F)cc1 | – | inactive: -4.33%
32 | Cc1cc(C(=O)O)ccc1-c1ccc(/C=C2\NC(=O)N(Cc3ccccc3Cl)C2=O)o1 | active: 50.1 µM | –
33 | COc1ccc(Cl)cc1NC(=O)C(C)N(C)Cc1ccc(C(F)(F)F)cc1 (configuration not stated) | inconclusive: 28.2 µM [inhibitor, single point] | –
34 | CC(C)(C)N(Cc1ccc2c(c1)OCO2)C(=O)/C=C\S(=O)c1ccccc1 (configuration not stated) | inconclusive: 28.2 µM [inhibitor, full curve] | –
35 | Cc1ccc(NC(=O)Nc2c(C)n(C)n(-c3ccccc3)c2=O)cc1C | inconclusive: 89.1 µM [inhibitor, single point] | –
36 | CC[C@@H](C)CN1C(=O)N[C@@H](c2ccccc2)C(C(C)=O)=C1C | inconclusive: 79.4 µM [inhibitor, partial curve] | –
37 | CC(=O)c1ccc(-n2c(-c3cc(-c4ccco4)[nH]n3)n[nH]c2=S)cc1 | inconclusive: 50.1 µM [inhibitor, partial curve] | –
38 | COc1cc(C2NC(=O)C(C#N)=C(Nc3cccc(C)c3)S2)ccc1O (configuration not stated) | – | inactive: 6.64%
39 | CC1NC(=O)NC1CCCCC(=O)O (configuration not stated) | – | inactive: 7.25%
40 | Cc1ccc(NC(=O)CN(C)C(=O)Cn2ncc(Cl)c(Cl)c2=O)cc1 | inconclusive: 0.752 µM [inhibitor, full curve, poor fit] | –
41 | C#CCOc1ccccc1/C=C1/C(=O)ON=C1C | inconclusive: 70.8 µM [inhibitor, single point] | –
42 | CCN1/C(=C/C=C/c2oc3ccc4ccccc4c3[n+]2CC)Oc2ccc3ccccc3c21 | inconclusive: 100 µM [inhibitor, single point] | –
43 | C=C(C)C(=O)Nc1cccc(C2=NOC3(C2)C[C@@H](C(N)=O)N(C(=O)/C=C/C=C/C)C3)c1 (some centres not stated) | inconclusive: 31.6 µM [inhibitor, partial curve] | –
44 | CCOC(=O)Nc1sc2c(c1C(N)=O)CCC(C)C2 (configuration not stated) | – | inactive: -3.16%
45 | COC(=O)c1ccc(C2C(C(=O)c3cc4ccccc4o3)=C(O)C(=O)N2c2cc(C)on2)cc1 (configuration not stated) | – | inactive: 9.8%
46 | O=C(Cc1cnn(-c2ccccc2)c1)c1ccc(O)c(O)c1O | active: 10.6 µM | –
47 | Cc1cc(NS(=O)(=O)c2ccc(NC(=O)CNS(=O)(=O)c3ccccc3)cc2)nc(C)n1 | inconclusive: 17.8 µM [inhibitor, full curve] | –
